{"source": "paper PMC5313200", "binders": {"B1": {"name": "mitochondrial antiviral signaling protein (MAVS), endogenous in RAW 264.7 cells (protein, UniProt Q8VCF0 1-503)", "chain": "MTFAEDKTYKYIRDNHSKFCCVDVLEILPYLSCLTASDQDRLRASYRQIGNRDTLWGLFNNLQRRPGWVEVFIRALQICELPGLADQVTRVYQSYLPPGTSLRSLEPLQLPDFPAAVSGPSAFAPGHNIPDHGLRETPSCPKPVQDTQPPESPVENSEQLLQTNSGAVARMSGGSLIPSPNQQALSPQPSREHQEQEPELGGAHAANVASVPIATYGPVSPTVSFQPLPRTALRTNLLSGVTVSALSADTSLSSSSTGSAFAKGAGDQAKAATCFSTTLTNSVTTSSVPSPRLVPVKTMSSKLPLSSKSTAAMTSTVLTNTAPSKLPSNSVYAGTVPSRVPASVAKAPANTIPPERNSKQAKETPEGPATKVTTGGNQTGPNSSIRSLHSGPEMSKPGVLVSQLDEPFSACSVDLAISPSSSLVSEPNHGPEENEYSSFRIQVDESPSADLLGSPEPLATQQPQEEEEHCASSMPWAKWLGATSALLAVFLAVMLYRSRRLAQ"}}, "biological_target": "T1, viperin, endogenous in RAW 264.7 cells (mouse (endogenous in RAW 264.7)) (UniProt Q8CBB9)", "T1 sequence": "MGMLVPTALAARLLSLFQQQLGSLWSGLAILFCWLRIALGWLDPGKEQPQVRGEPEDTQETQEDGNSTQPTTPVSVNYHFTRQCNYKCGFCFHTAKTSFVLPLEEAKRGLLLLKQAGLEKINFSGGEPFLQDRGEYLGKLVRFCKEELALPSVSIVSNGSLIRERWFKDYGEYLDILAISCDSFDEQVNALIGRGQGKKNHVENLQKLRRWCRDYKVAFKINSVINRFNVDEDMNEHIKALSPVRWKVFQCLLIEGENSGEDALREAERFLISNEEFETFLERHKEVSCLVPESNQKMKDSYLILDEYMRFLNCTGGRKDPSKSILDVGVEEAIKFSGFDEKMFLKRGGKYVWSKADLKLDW", "assay": "co-IP; endogenous proteins of RAW 264.7 cells stimulated with IFN (10^3 units/ml) or transfected with poly(I:C) (1 μg/ml) for 8 h, or unstimulated; CHAPS lysates; anti-viperin or anti-MAVS beads; western blot", "note": "Results are given in words; binding and its absence hold for the method and conditions named. Binding seen in cells or lysates may run through a third protein. Some results given as binding are weak or reduced against the parent protein; the word gives no strength.", "data": [{"binder": "B1", "values": [{"measurement": "binding", "result": "binds"}]}]}
